Amino acid sequences for entries named in this document (tags omitted). A change or cut given only in a name is not applied to a line headed by its entry.
UniProt Q9UPQ9, whole entry, looked up: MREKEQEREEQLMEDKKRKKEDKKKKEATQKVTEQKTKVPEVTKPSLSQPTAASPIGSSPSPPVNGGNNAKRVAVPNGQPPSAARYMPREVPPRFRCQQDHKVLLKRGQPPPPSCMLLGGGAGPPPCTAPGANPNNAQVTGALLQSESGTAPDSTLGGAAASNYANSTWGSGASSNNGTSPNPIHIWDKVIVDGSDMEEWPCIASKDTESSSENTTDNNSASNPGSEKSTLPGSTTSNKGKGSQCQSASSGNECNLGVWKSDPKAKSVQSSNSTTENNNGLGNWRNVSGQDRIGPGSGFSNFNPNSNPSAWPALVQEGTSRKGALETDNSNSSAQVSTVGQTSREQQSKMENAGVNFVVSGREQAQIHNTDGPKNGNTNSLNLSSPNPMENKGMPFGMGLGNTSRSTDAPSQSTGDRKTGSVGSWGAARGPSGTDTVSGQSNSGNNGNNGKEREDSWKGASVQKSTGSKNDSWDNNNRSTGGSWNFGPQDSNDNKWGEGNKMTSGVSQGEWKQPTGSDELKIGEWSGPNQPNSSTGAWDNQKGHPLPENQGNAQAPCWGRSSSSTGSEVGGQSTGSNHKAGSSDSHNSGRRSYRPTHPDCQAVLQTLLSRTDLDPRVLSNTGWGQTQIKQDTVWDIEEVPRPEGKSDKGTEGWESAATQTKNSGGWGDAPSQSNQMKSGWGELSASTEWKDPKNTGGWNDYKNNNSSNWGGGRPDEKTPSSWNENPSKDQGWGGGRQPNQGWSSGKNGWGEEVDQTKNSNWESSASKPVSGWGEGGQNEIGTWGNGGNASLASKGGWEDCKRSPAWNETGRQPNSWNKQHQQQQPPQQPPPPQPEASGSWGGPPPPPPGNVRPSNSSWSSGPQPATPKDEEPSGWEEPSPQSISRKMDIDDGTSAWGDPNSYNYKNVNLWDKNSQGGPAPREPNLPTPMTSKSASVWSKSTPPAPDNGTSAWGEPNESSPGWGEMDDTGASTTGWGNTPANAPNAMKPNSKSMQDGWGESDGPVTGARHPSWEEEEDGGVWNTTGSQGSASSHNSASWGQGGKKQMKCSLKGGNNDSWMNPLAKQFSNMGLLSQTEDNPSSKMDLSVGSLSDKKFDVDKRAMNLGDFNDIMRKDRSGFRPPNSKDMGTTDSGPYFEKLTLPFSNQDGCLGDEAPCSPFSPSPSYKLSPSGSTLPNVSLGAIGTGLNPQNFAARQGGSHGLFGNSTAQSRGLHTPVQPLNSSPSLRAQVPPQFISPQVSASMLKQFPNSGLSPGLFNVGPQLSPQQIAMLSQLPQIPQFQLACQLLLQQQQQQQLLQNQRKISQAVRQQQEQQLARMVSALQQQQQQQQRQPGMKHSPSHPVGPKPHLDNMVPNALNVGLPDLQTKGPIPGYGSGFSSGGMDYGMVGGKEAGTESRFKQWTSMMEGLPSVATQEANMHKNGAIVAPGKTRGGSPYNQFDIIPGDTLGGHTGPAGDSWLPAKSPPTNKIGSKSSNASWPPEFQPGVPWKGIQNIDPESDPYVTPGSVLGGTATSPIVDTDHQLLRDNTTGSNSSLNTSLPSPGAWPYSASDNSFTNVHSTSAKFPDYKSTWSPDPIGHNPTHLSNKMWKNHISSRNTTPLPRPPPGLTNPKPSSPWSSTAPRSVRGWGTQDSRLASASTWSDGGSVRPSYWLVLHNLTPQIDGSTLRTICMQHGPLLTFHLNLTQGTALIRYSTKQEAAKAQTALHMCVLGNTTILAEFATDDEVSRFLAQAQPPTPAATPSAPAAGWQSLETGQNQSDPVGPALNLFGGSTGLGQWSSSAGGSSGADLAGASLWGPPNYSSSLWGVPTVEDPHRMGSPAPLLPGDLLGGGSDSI
UniProt O00635: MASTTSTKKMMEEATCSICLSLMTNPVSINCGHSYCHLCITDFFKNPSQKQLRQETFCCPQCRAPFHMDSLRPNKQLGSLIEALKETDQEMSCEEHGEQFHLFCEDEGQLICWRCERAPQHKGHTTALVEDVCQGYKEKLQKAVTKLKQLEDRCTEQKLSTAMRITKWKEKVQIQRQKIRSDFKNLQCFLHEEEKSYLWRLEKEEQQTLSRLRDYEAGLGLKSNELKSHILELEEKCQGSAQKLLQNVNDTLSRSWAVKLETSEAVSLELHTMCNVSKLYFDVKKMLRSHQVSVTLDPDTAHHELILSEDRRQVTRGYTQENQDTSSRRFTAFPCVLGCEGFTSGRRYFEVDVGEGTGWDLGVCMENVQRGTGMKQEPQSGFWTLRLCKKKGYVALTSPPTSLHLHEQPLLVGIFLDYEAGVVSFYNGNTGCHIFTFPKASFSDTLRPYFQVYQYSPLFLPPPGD
UniProt Q9H3S4: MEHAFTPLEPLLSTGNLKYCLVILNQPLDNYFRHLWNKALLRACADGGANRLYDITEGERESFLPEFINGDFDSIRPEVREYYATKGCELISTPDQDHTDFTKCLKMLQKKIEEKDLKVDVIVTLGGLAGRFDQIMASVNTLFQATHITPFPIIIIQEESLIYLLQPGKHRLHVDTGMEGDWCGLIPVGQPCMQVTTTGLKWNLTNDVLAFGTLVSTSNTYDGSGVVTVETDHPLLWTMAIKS
UniProt Q6Q0C0: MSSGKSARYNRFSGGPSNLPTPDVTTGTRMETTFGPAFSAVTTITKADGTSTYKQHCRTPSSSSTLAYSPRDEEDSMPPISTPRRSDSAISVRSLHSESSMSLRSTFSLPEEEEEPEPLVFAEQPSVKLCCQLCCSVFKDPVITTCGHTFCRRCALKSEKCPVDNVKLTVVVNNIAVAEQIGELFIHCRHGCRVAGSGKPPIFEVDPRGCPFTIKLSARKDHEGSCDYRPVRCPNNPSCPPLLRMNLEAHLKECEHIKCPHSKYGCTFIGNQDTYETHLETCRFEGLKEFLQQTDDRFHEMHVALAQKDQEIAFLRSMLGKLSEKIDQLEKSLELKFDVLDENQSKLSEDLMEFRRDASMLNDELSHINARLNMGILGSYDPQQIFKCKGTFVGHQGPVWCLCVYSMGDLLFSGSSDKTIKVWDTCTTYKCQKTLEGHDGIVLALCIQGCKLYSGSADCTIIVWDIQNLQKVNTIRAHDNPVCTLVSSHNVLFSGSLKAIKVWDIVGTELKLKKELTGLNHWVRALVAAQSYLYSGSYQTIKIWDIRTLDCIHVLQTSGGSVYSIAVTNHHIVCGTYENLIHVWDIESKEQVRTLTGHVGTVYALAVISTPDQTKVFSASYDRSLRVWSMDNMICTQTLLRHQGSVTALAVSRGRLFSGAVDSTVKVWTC
UniProt Q13625: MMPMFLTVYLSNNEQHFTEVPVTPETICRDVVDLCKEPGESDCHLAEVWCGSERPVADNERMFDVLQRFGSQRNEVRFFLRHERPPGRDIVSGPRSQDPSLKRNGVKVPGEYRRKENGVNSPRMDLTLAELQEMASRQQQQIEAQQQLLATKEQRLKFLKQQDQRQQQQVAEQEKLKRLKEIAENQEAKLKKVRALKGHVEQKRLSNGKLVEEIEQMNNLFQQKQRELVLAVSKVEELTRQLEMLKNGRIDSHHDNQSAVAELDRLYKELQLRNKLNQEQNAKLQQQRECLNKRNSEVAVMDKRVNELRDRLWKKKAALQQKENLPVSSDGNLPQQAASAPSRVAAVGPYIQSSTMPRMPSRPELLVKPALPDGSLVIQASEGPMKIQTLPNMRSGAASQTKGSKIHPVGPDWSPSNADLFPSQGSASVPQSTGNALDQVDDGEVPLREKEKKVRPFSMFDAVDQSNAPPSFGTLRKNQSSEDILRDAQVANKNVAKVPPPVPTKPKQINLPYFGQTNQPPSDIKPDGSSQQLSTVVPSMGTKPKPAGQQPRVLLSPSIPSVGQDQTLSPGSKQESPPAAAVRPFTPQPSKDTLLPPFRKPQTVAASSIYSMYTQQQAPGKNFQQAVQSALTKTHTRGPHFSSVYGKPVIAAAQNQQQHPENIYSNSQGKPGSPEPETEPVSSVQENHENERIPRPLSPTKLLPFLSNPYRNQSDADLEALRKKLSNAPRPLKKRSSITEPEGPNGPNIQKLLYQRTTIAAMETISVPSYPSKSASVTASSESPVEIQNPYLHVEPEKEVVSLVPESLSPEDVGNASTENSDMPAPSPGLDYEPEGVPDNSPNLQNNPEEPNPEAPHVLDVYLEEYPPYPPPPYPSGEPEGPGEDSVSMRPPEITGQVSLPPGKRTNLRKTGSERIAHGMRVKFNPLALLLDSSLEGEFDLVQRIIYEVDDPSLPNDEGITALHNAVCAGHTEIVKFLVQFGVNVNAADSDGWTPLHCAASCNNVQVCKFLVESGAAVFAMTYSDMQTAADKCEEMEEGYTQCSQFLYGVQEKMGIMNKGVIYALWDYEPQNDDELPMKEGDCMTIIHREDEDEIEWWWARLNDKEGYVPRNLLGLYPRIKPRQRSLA
UniProt Q8TEL6: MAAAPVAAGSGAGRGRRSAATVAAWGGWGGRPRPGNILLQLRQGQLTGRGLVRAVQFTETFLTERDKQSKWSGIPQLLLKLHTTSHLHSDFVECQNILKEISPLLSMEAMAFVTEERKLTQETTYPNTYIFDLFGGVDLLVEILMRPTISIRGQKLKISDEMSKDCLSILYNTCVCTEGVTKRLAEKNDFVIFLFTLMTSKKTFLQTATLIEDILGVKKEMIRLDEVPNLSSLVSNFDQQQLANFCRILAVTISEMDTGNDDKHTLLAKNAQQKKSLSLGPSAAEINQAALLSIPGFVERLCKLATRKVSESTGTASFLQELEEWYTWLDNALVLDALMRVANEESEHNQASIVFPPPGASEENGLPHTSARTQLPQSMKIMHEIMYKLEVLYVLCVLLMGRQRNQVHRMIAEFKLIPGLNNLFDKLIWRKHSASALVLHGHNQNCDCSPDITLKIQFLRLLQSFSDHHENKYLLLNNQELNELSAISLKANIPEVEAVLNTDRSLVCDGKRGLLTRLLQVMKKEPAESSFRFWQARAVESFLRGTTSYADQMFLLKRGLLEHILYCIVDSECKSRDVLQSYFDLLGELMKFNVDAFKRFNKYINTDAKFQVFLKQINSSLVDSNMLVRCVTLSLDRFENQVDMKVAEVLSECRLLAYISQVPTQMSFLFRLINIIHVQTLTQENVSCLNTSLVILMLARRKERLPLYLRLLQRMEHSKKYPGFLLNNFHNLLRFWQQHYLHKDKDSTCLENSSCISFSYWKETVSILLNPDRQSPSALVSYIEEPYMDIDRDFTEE
UniProt P19474, whole entry, looked up: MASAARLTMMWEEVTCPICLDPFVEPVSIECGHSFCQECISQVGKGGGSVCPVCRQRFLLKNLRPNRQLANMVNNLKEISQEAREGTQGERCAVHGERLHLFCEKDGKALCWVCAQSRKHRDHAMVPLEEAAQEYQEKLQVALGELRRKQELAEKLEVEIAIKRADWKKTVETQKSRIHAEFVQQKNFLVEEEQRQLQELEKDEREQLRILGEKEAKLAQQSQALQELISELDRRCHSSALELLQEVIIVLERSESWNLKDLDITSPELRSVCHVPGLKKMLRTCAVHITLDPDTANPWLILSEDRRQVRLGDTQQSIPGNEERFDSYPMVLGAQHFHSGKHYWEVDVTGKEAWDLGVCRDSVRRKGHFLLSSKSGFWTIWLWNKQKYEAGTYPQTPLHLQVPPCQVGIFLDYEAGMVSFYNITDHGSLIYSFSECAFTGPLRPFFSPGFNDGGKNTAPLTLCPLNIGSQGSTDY
UniProt O95900: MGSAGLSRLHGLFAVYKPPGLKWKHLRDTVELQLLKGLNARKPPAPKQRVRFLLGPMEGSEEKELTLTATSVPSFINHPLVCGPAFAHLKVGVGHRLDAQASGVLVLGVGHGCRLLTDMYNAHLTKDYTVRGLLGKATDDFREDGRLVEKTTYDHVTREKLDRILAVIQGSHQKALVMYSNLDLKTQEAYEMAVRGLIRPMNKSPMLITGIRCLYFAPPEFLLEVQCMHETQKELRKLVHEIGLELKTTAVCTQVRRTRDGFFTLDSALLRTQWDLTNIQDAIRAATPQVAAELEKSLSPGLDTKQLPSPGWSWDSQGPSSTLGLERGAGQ
UniProt Q86W33: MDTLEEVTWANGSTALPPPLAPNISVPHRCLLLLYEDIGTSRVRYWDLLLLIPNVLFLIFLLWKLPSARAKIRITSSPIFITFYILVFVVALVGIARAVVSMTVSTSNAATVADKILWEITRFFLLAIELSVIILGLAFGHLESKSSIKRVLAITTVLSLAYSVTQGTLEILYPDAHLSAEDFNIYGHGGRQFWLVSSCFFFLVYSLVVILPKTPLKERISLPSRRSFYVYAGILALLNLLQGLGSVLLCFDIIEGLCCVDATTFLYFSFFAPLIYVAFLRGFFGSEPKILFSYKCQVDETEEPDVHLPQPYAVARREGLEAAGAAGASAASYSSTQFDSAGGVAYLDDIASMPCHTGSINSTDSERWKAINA
UniProt O43399: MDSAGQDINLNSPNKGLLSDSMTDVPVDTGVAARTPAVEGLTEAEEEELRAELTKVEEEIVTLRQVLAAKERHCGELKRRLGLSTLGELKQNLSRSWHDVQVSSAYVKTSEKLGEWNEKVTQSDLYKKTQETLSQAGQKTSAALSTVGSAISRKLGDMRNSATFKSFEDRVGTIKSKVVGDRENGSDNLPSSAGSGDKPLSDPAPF

Some of the results follow.
What follows are targets tested with CC[C@@H]1C(=O)N(C)c2cnc(Nc3ccc(C(=O)N[C@H]4CC[C@H](N5CCN(CC6CC6)CC5)CC4)cc3OC)nc2N1C(C)C [volasertib] (assay: log2 fold change, soluble protein after heating vs DMSO (PISA); higher = thermal stabilisation; K562 cells, 10 uM, 30 min; active = over 0.2 and 3.5 SD of the protein, either way, in both replicates (recomputed)).
Procedure, shortened: (§1)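 K562 cells at 2×10^6 cells/mL were given 10 μM compound for 30 min. Aliquots then went through 3 min of heating across 48°C-58°C, were pooled, and were extracted in PBS with 0.5% NP-40 at 4°C, and the supernatant after 21,000xg for 90 min was quantified by TMTpro 16plex LC-MS/MS with channel sums equalised. Thermal stability relative to control samples, from duplicates, is given as log2 fold change.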
In the case of TNRC6B (UniProt Q9UPQ9), the log2 fold change is reported as inactive: 0.016. In the case of TRIM38 (UniProt O00635), the log2 fold change is reported as inactive: 0.114. With TPK1 (UniProt Q9H3S4) the log2 fold change was inactive: 0.014. With TRAF7 (UniProt Q6Q0C0) the log2 fold change was inactive: -0.034. With TP53BP2 isoform 3 (UniProt Q13625) the log2 fold change was inactive: -0.126. TRPC4AP (UniProt Q8TEL6) was tested, and the log2 fold change was inactive: -0.243. TRIM21 (UniProt P19474) was tested, and the log2 fold change was inactive: 0.06. With TNKS (UniProt O95271) the log2 fold change was inactive: -0.134. With TPCN1 isoform 3 (UniProt Q9ULQ1) the log2 fold change was inactive: -0.045. With TRAPPC2 isoform 3 (UniProt P0DI81) the log2 fold change was inactive: -0.002. TRUB2 (UniProt O95900) was tested, and the log2 fold change was inactive: -0.032.

These targets were tested with CC[C@H](C)N1C=C(C2=C(C=C(C=C21)C3=CN=C(C=C3)N4CCNCC4)C(=O)NCC5=C(C=C(NC5=O)C)C)C in the same assay as above.
Procedure, shortened: as §1
TOM1L2 (UniProt Q6ZVM7) was tested, and the log2 fold change was inactive: -0.025. For TRIM14 (UniProt Q14142), the log2 fold change was inactive: -0.214. TRIM33 isoform 2 (UniProt Q9UPN9) was tested, and the log2 fold change was inactive: 0.312. In the case of TRIM38 (UniProt O00635), the log2 fold change is reported as inactive: -0.01. For TP53BP2 isoform 3 (UniProt Q13625), the log2 fold change was inactive: 0.02. In the case of TRPC4AP (UniProt Q8TEL6), the log2 fold change is reported as inactive: 0.014. TPRA1 (UniProt Q86W33) was tested, and the log2 fold change was inactive: 0.067. For TRA2A (UniProt Q13595), the log2 fold change was inactive: -0.008. For TPD52L2 isoform 3 (UniProt O43399), the log2 fold change was inactive: 0.02. In the case of TRIM21 (UniProt P19474), the log2 fold change is reported as inactive: 0.14. TRADD (UniProt Q15628) was tested, and the log2 fold change was inactive: 0.309. For TPCN1 isoform 3 (UniProt Q9ULQ1), the log2 fold change was inactive: -0.076. In the case of TRAPPC2 isoform 3 (UniProt P0DI81), the log2 fold change is reported as inactive: 0.111.

The targets below were run with CC[C@H](C)[C@@H](C(=O)N[C@@H]([C@@H](C)O)C(=O)N[C@@H](CC(C)C)C(=O)[C@]1(CO1)C)NC(=O)[C@H]([C@@H](C)CC)N(C)C(=O)C [epoxomicin] in the same assay as above.
Procedure, shortened: as §1
For TOM1L2 (UniProt Q6ZVM7), the log2 fold change was inactive: -0.035. TNRC6B (UniProt Q9UPQ9) was tested, and the log2 fold change was inactive: 0.012. TRIM33 isoform 2 (UniProt Q9UPN9) was tested, and the log2 fold change was inactive: 0.227. For TRIM38 (UniProt O00635), the log2 fold change was inactive: -0.008. In the case of TRIQK (UniProt Q629K1), the log2 fold change is reported as inactive: -0.02. In the case of TRPM4 (UniProt Q8TD43), the log2 fold change is reported as inactive: -0.118. TPK1 (UniProt Q9H3S4) was tested, and the log2 fold change was inactive: 0.049. In the case of TRAF7 (UniProt Q6Q0C0), the log2 fold change is reported as inactive: 0.148. With TP53BP2 isoform 3 (UniProt Q13625) the log2 fold change was inactive: 0.04. TRPC4AP (UniProt Q8TEL6) was tested, and the log2 fold change was inactive: 0.234. TPRA1 (UniProt Q86W33) was tested, and the log2 fold change was inactive: -0.031. For TPD52L2 isoform 3 (UniProt O43399), the log2 fold change was inactive: 0.001. TOM1 (UniProt O60784) was tested, and the log2 fold change was inactive: 0.094. With TRIM5 (UniProt Q9C035) the log2 fold change was inactive: 0. With TRADD (UniProt Q15628) the log2 fold change was inactive: 0.078. TPCN1 isoform 3 (UniProt Q9ULQ1) was tested, and the log2 fold change was inactive: 0.163. TROAP (UniProt Q12815) was tested, and the log2 fold change was inactive: 0.196. For TRUB2 (UniProt O95900), the log2 fold change was inactive: -0.276. For TPPP3 (UniProt Q9BW30), the log2 fold change was inactive: 0.033.

The targets below were run with CCn1c(C(=O)N(C2CC2)C2CC2)cc2c3c(ncn3C)c(Nc3cc(C)n(C)n3)nc21 in the same assay as above.
Procedure, shortened: as §1
With TNRC6B (UniProt Q9UPQ9) the log2 fold change was inactive: -0.052. TRIM38 (UniProt O00635) was tested, and the log2 fold change was inactive: -0.142. With TPK1 (UniProt Q9H3S4) the log2 fold change was inactive: 0.236. TRAF7 (UniProt Q6Q0C0) was tested, and the log2 fold change was inactive: -0.059. For TP53BP2 isoform 3 (UniProt Q13625), the log2 fold change was inactive: -0.061. TRPC4AP (UniProt Q8TEL6) was tested, and the log2 fold change was inactive: -0.017. TPRA1 (UniProt Q86W33) was tested, and the log2 fold change was inactive: -0.106. In the case of TREML2 (UniProt Q5T2D2), the log2 fold change is reported as inactive: 0.039. TRIM21 (UniProt P19474) was tested, and the log2 fold change was inactive: 0.04. For TRADD (UniProt Q15628), the log2 fold change was inactive: -0.1. In the case of TPCN1 isoform 3 (UniProt Q9ULQ1), the log2 fold change is reported as inactive: 0.059. With TRPS1 isoform 2 (UniProt Q9UHF7) the log2 fold change was inactive: -0.105. For TNK2 isoform 3 (UniProt Q07912), the log2 fold change was inactive: 0.089. With TRAPPC2 isoform 3 (UniProt P0DI81) the log2 fold change was inactive: 0.055. TRUB2 (UniProt O95900) was tested, and the log2 fold change was inactive: 0.086.

Each target was assayed with CCn1cc(-c2ccnc3[nH]c(-c4cccc(CN(C)C)c4)cc23)c(-c2ccc(NC(=O)N(C)C)cc2)n1 in the same assay as above.
Procedure, shortened: as §1
For TNRC6B (UniProt Q9UPQ9), the log2 fold change was inactive: 0.005. In the case of TRIM38 (UniProt O00635), the log2 fold change is reported as inactive: -0.055. For TPK1 (UniProt Q9H3S4), the log2 fold change was inactive: -0.073. For TP53BP2 isoform 3 (UniProt Q13625), the log2 fold change was inactive: 0.119. TRPC4AP (UniProt Q8TEL6) was tested, and the log2 fold change was inactive: 0.041. TPRA1 (UniProt Q86W33) was tested, and the log2 fold change was inactive: -0.15. In the case of TPD52L2 isoform 3 (UniProt O43399), the log2 fold change is reported as inactive: -0.076. In the case of TOM1 (UniProt O60784), the log2 fold change is reported as inactive: -0.072. For TPCN1 isoform 3 (UniProt Q9ULQ1), the log2 fold change was inactive: 0.23. In the case of TRAPPC2 isoform 3 (UniProt P0DI81), the log2 fold change is reported as inactive: -0.023. With TROAP (UniProt Q12815) the log2 fold change was inactive: -0.004. In the case of TRIM27 (UniProt P14373), the log2 fold change is reported as inactive: -0.16. In the case of TRUB2 (UniProt O95900), the log2 fold change is reported as inactive: 0.244.

Source: the supplement of paper PMC10849652
